According to publication PMC6468627:

Columns and labels:
[1] = target: T1, EpCAM (native, on primary lung cancer cells) (Homo sapiens (patient NSCLC tumor cells)) (UniProt P16422); assay: confocal co-staining of tissue; conditions: co-localizes with anti-EpCAM antibody on lung cancer sections, 50 nM aptamer; DPBS, 25 °C, 30 min; cells (3×10^5) pre-incubated with 1 ng/uL salmon sperm DNA; DNA pools/library heated to 95 °C 5 min then on ice 10 min; pH not stated; protein on the cell surface; single-stranded DNA
T1 sequence: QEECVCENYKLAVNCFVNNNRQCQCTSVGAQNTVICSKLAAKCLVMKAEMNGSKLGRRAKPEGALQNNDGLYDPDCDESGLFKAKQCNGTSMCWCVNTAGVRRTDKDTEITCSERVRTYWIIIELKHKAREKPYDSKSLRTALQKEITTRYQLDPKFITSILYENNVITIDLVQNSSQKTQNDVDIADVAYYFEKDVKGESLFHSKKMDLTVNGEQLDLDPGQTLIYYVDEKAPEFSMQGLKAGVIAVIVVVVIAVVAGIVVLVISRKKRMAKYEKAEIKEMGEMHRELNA

[2] = target: T1, EpCAM (native, on primary lung cancer cells) (Homo sapiens (patient NSCLC tumor cells)); assay: competition (flow cytometry); conditions: not displaced by anti-EpCAM antibody, 50 nM oligonucleotide; DPBS, 25 °C, 30 min; cells (3×10^5) pre-incubated with 1 ng/uL salmon sperm DNA; DNA pools/library heated to 95 °C 5 min then on ice 10 min; pH not stated; protein on the cell surface; label: FAM; single-stranded DNA

Sequence | binding result [1] | binding result [2]
CTCCTCTGACTGTAACCACGGTGCGCGTACCACCATGTGTACACACTGCATGTTTGGTTAGCATAGGTAGTCCAGAAGCC [EPCAM-APT-02 (ECM_02)] | binds | –
CTCCTCTGACTGTAACCACGACACGCACAAATGTCAGTGTACCGCACTCGCACATTCTTAGCATAGGTAGTCCAGAAGCC [EPCAM-APT-01 (ECM_01)] | binds | –
AGAGAGAGAGAGAGAGAGAGAGAGAGAGAGAGAGAGAGAGAGAGAGAGAGAGAGAGAGAGAGAGAGAGAGAGAGAGAGAG [(AG)40 control oligonucleotide] | – | no binding

Construct, isoform or probe ends are uncertain for at least one entry. Where cells or extracts were used, other partners may take part. For part of these data: No signal at the amounts used counts as a negative.
